# Results reported in patent publication US10098352B2, “Honeybee repellents and uses thereof” (Inscent, Inc., priority 2011, dated 2018).
# The name of at least one read-out is uncertain.
# Tested on: Apis mellifera Carniolan foraging worker honeybees
# Test: Choice test in free-flight box apparatus
# Assay type: in vivo
# Details: amount 0.1%; negative = decrease in food eaten
# Description: To determine whether living honeybees will choice to move towards a source of a candidate compound, these compounds were assayed using a choice test in a free-flight box apparatus.
# All tests were done in a free-flight box apparatus. The apparatus comprises a 244 cm long×46 cm deep×30 cm high clear plastic box including two equally-sized independent testing chambers, each with 10 cm diameter air inlets that admit filtered room air, separated by a smaller central chamber with a screened air outlet to each testing chamber. Air can be pulled through the sealed box via a 10 cm diameter duct from the air outlet using an AQE Fume Fighter 500 fume extractor (BPA Air Quality Solutions, LLC, Charleston, S.C.), which removes the test odors using activated charcoal and HEPA filters. […]
# Based on the observation that bees tend to return to dishes in the same position where they have fed before, each set of trials with each group of bees began with “Pattern Identification” tests to see which dishes lose the most weight, reflecting the most feeding. […] Bee movements were recorded by a small, wide-angle digital video camcorder (HD Hero 960; GoPro, Halfmoon Bay, Calif.) placed on a tripod in front of the test chamber. […]
structure (smiles),measurement,value
"COc1ccc(CN2CCN(Cc3ccccc3)CC2)c(C)c1C [compound 7, 1-benzyl-4-(4-methoxy-2,3-dimethylbenzyl)piperazine]",Quintile Rank Change Score,−3.10
